Assay results reported in patent US20250145724A1.
Results are given in words; binding and its absence hold for the method and conditions named. Some binding calls cover weakened binding; strength is not graded here.

Target: Adenosine A2A receptor (human) (human) (UniProt P29274)
Assay: flow cytometry at 100 nM IgG, HEK293-A2a cells against parent cells

- binding: binds
B1: A2A - 2 (antibody, V domains shown)
VH: EVQLLESGAEVKKPGASVKVSCKASGYTFTGYYMHWVRQAPGQGLEWMGWINPNSGGTNYAQKFQGRVTMTRDTSISTAYMELSSLRSEDTAVYYCARGGPFDYWGQGTMVTVSS
VL: ELTLTQSPAFMSATPGDKVNISCKASQDIDDDMNWYQQKPGEAAIFIIQEATTLVPGIPPRFSGSGYGTDFTLTINNIESEDAAYYFCLQHDNFPMYTFGQGTKLEIK
